## Screening data, single-dose tests

Amino acid sequences for entries named in this document (tags omitted). Residues count along the entry.
UniProt P9WFT3, whole entry: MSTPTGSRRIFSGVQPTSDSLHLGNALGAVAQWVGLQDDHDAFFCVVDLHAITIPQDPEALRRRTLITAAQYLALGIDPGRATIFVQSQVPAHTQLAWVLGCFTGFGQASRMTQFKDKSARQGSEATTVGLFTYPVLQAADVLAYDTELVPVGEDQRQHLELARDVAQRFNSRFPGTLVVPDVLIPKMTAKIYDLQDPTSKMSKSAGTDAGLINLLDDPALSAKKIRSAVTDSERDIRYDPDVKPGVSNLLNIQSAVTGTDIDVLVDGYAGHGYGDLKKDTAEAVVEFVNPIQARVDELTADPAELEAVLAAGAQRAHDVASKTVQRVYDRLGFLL
UniProt Q4DA54, 1-478: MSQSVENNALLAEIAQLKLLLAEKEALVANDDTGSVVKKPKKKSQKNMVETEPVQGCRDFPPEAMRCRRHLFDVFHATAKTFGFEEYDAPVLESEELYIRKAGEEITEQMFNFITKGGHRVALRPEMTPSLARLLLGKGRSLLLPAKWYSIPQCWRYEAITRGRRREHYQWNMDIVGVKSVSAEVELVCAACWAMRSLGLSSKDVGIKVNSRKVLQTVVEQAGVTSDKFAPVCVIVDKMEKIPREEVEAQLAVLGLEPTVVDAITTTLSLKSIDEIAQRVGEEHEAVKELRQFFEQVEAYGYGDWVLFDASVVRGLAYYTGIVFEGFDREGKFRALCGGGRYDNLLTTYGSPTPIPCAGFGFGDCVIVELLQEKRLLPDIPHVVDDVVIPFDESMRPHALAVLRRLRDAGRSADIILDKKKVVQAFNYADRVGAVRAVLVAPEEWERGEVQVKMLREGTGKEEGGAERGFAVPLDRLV

Measurements from “University of Dundee, Small-Polar-MMV Screening Library” (2021), ChEMBL document CHEMBL3988442.

Each number is a percent effect as filed.
The record does not define 0% and 100%; most values in the screen are far below 50% and negative numbers occur (in some assays of this library far below -100).
The compounds are a random part of those screened.
Two or more numbers in one place are separate tests of the same structure; such repeats can differ widely.
A dash means the value is not listed here; it may have been measured.

MtTrpRS: 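Tryptophan-tRNA ligase, Mycobacterium tuberculosis (UniProt P9WFT3). Enzyme assay of tryptophanyl-tRNA synthetase; the read-out is not stated. Tested at 10 µM. Higher most likely means stronger inhibition; the record gives no direction and few retests gave an IC50. Size under these conditions: about 65,000 compounds, about 64 of them at 50% or above in at least one test.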
Leishmania in macrophages: 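Cell assay of Leishmania donovani living inside macrophages; the read-out is not stated. Compounds at 30 µM. Higher reads as stronger inhibition (inferred: compounds with an IC50 in retests scored well above the rest). Of about 69,000 compounds tested this way, about 1,000 (1.5%) reached 50% or more in at least one test.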
TcHisRS: 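Histidine-tRNA ligase, Trypanosoma cruzi CL Brener (UniProt Q4DA54). Enzyme assay of histidyl-tRNA synthetase; the read-out is not stated. Compounds at 30 µM. Direction is inferred from retests: higher values go with stronger inhibition. About 69,000 compounds were tested under these conditions; 0.045% (about 31) showed 50% or more at least once.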

| # | structure | MtTrpRS | Leishmania in macrophages | TcHisRS |
|---|---|---|---|---|
| 1 | `O=C(O)C(F)(F)F.O=C(O)C(F)(F)F.[H][C@@]12CN(C(=O)c3ccoc3C)C[C@]1([H])OCCN2CCN1CCCC1` | - | 3.389 | - |
| 2 | `Cc1cc(C)cc(N(C)S(=O)(=O)c2cc3c(c(C(=O)O)c2)OCCO3)c1` | 3.311 | 15.1 | 3.012 |
| 3 | `CCn1cc(NC(=O)CN2C(=O)CC(C)(C)c3ccccc32)cn1` | 10.55 | -20.92 | 12.87 |
| 4 | `O=C(NCC1CCCO1)c1c(-n2cnnn2)sc2c1CCC2` (centres unmarked) | -0.3178 | -7.332 | 1.087 |
| 5 | `CS(=O)(=O)NCC1CCCN(C(=O)c2ccc(Cl)o2)C1` (centres unmarked) | -1.541 | 6.944 | 1.901 |
| 6 | `CC(C)c1nc(C(=O)N2CCCC(N)CC2)cs1` (centres unmarked) | -1.589 | -14.47 | 7.831 |
| 7 | `OC(CN(Cc1ccccc1)Cc1ccccn1)c1cccs1` (centres unmarked) | -3.97 | 24.97 | 6.349 |
| 8 | `CCN1CC2(CC1=O)CN(C(=O)COC)CCN(S(C)(=O)=O)C2` (centres unmarked) | 6.105 | 20.14 | 9.816 |
| 9 | `CCOCC(=O)N1Cc2nnn(C)c2C(COCc2ccccn2)C1.O=C(O)C(F)(F)F` (centres unmarked) | - | -4.127 | - |
| 10 | `O=C(O)C(F)(F)F.[H][C@@]12CCCO[C@]1([H])[C@H](N(CC)CC)CN2C(=O)c1ccnnc1` | - | 20.85 | - |
| 11 | `O=C(CN1CCCCCC1)NCCSc1cnn[nH]1` | -3.521 | 31.75 | 6.806 |
| 12 | `Cc1nc(C2CCCN(C(=O)COCc3ccccc3)C2)no1` (centres unmarked) | -9.833 | 5.147 | 5.085 |
| 13 | `CCn1c(NCc2ccc(OC)cc2)nc2c(C)nn(C)c2c1=O` | 3.886 | 20.16 | 0.8696 |
| 14 | `CSC(C)C(=O)Nc1ccnn1-c1ccccc1C` (centres unmarked) | 0.5663 | -10.09 | -1.554 |
| 15 | `CN(C)c1ncc(-c2ccc(C(N)=O)cc2)c(C2CCNC2)n1` (centres unmarked) | -10.43 | - | 3.714 |
| 16 | `CC(NS(=O)(=O)CCCC#N)c1cccc(-n2cccn2)c1` (centres unmarked) | -3.116 | 16.66 | 0.9804 |
| 17 | `CCc1nc(CN(C)C(=O)CSC)no1` | 6.359 | 16.9 | 8.04 |
| 18 | `c1ccc(Cc2nc(CNC3CCOC4(CCOCC4)C3)no2)cc1` (centres unmarked) | -1.412 | -7.056 | 4.972 |
| 19 | `CN(Cc1cn2c(n1)CN(C(=O)N(C)C)CC2)Cc1ccco1` | -1.355 | 12.85 & 23.62 | 0 |
| 20 | `N#Cc1cccc(CS(=O)(=O)NCCC(O)c2ccccc2)c1` (centres unmarked) | -2.309 | -0.4298 | 0.4149 |
| 21 | `Cc1nc(CNC2CCc3nc(C(C)C)nn3C2)oc1C` (centres unmarked) | 0 | 23.95 | 6.667 |
| 22 | `O=C(O)C(F)(F)F.O=C(O)C(F)(F)F.c1ccc(CN2CCc3nnc(CN4CCCCC4)n3CC2)nc1` | - | -31.83 | - |
| 23 | `Cc1ccc(C(=O)NCCCN(C)S(C)(=O)=O)cc1-n1cccc1` | -6.955 | 9.508 | 7 |
| 24 | `[H][C@@]12C[C@H](C(=O)NCc3ccco3)CN(C(=O)c3ccco3)[C@]1([H])CCO2` | - | -26.52 | - |
| 25 | `Cc1[nH]ncc1CCCNC(=O)Nc1ccc(S(C)(=O)=O)nc1` | 10.85 | 4.687 | 1.97 |
| 26 | `O=C(NCc1cncc2c1CCN(CC1CCOC1)C2)c1ccco1` (centres unmarked) | - | - | 3.911 |
| 27 | `Cc1ccc(CC(=O)N2CCCC(c3nccs3)C2)cn1` (centres unmarked) | 1.258 | 4.703 | 3.207 |
| 28 | `Cc1ccc(NC2CCN(C(=O)c3cc(C(N)=O)cs3)CC2)nn1` | -6.503 | 2.601 | -0.3774 |
| 29 | `O=C(c1cnc(-c2ncccn2)s1)N1CCCC1Cn1cccn1` (centres unmarked) | 2.603 | 11.78 | 4.298 |
| 30 | `O=C(O)C(F)(F)F.O=C(O)C(F)(F)F.[H][C@@]12C[C@@H](C(=O)NC(C)C)C[C@@]1([H])N(Cc1cccnc1)CCO2` | - | -14.35 | - |
| 31 | `Cc1cccc(CCC(=O)NCC2CCCN2c2cccnn2)c1` (centres unmarked) | 0.9372 | -7.964 | 6.383 |
| 32 | `CC(C)c1n[nH]c(C2CN(C(=O)c3cccc4cn[nH]c34)CCO2)n1` (centres unmarked) | 0.2924 | 14.91 | 2.273 |
| 33 | `Cc1ccc(NC2CCN(C(=O)c3cccn3C)CC2)nn1` | 6.475 | 28.8 | 3.817 |
| 34 | `CC(C)c1n[nH]c(C2CN(Cc3nnc(C4CC4)o3)CCO2)n1` (centres unmarked) | 0.236 | -14.71 | 6.767 |
| 35 | `O=C(Nc1ccc(F)cc1)N(CCC(F)(F)F)C[C@H](O)CO` | -4.479 | 4.039 | 9.244 |
| 36 | `N#Cc1c(SCCN2CCCCC2)sc2c(O)cc(O)nc12` | - | -60.18 | 6.936 |
| 37 | `CN(Cc1nncn1C)C(=O)c1cc(COc2ccccc2F)[nH]n1` | 0.4112 | 37.17 | 4.938 |
| 38 | `Cc1nccn1C1CCCN(C(=O)COC2CCCC2)C1` (centres unmarked) | -3.016 | 19.65 | 2.353 |
| 39 | `O=C(CCOc1ccccc1F)N1CCCC1Cn1cccn1` (centres unmarked) | -7.704 | 14.06 | 4.046 |
| 40 | `COCc1nc(C(=O)NS(=O)(=O)c2cc(Br)ccc2C)cs1` | 5.481 | 5.255 | 3.226 |
| 41 | `O=C(NCC(O)c1ccsc1)Nc1cccs1` (centres unmarked) | 10.69 | -26.77 | 15 |
| 42 | `CC(C)Oc1ccccc1CNC(=O)N1CCC(n2cncn2)CC1` | -2.242 | 7.324 | 0.3759 |
| 43 | `CC(C)c1nccn1C1CCCN(C(=O)c2cccc3[nH]ncc23)C1` (centres unmarked) | -0.08136 | 25.06 | -0.8403 |
| 44 | `CNC(=O)C1Cn2ccnc2C2(CCN(C(=O)CC3CCCC3)CC2)O1.O=C(O)C(F)(F)F` (centres unmarked) | - | 17.57 | - |
| 45 | `Cc1nc(N2CCN(C(=O)c3cccs3)CC2)cc(-n2cccc2)n1` | -0.07886 | 11.33 | 3.415 |
| 46 | `CCn1nc(C)c(-c2cncn2CCN(C)C2CCCC2)c1C.Cl` | - | 32.48 | - |
| 47 | `COCCn1c(CN2CCCO2)cnc1S(=O)(=O)CC1CCCCC1` | 6.908 | 6.539 | 4.036 |
| 48 | `N#CC1C(=O)Nc2c(cnn2C2CCCC2)C12CCCCC2` (centres unmarked) | -4.964 | 11.13 | 4.202 |
| 49 | `O=C1COc2cccc(OCc3ccccn3)c2N1` | 5.218 | 18.06 | 1.478 |
| 50 | `COCCCSc1ccc(NCc2cscn2)cc1` | -13.79 | 17.55 | 1.478 |
| 51 | `CCOCCCNS(=O)(=O)c1ccc2c(c1)NC(=O)C(C)O2` (centres unmarked) | 11.87 | -26.73 | 4.651 |
| 52 | `Cc1nn(C)c2c(N3CCN(C(=O)C4CCC4)CC3)ncnc12` | -3.417 | -7.781 | 6.011 |
| 53 | `CC(=O)N(Cc1ncc(C)o1)C1CCN(CCc2cnn(C)c2)C1` (centres unmarked) | -3.278 | 16.14 | 0 |
| 54 | `Cc1nc(CNC(=O)NC2CCN(c3ncccc3Cl)C2)oc1C` (centres unmarked) | 0.3846 | 30.54 | 7.407 |
| 55 | `CCN1C(=O)CCC12CCCN(Cc1nccs1)C2.O=C(O)C(F)(F)F` (centres unmarked) | - | 36.34 | - |
| 56 | `Cc1ccnc(C2CCN(C(=O)c3cnn(C)c3)C2)n1` (centres unmarked) | - | -5.408 | 11.7 |
| 57 | `FC(F)(F)c1nc(NC2CCCC2)c2ccccc2n1` | -2.423 | 52.6 | 6.612 |
| 58 | `CC(C)(C)C(=O)N1CCC(c2nc(O)cc(-c3ccncc3)n2)CC1` | - | -18.1 | 4.255 |
| 59 | `COc1ccc(CN2CCN(C(C)=O)CC2)cc1SC(F)(F)F` | -3.498 | -4.252 | 0.5405 |
| 60 | `Cc1ccc(NC(=O)c2nc3c(s2)CCCN3C(=O)C2CC2)cn1.O=C(O)C(F)(F)F` | - | 23.5 | - |
| 61 | `NC(=O)Nc1ccc(C(=O)NCCn2cccc2)cc1` | -2.333 | 13.65 | -1.98 |
| 62 | `Cc1ccc(CN(CCCn2ccnc2)Cc2cnn(C)c2)s1.O=C(O)CC(O)(CC(=O)O)C(=O)O` | - | 13.8 & 13.31 | - |
| 63 | `CCN1CCN(c2nc(O)cc(Cc3ccccc3F)n2)CC1` | -5.543 | 9.072 | 4.135 |